Reference: publication PMC12040169 (PLOS Biology, 2025)
This is one part of the list.

tested on: T1, CTL2-GFP (C. trachomatis L2/434/Bu, GFP-expressing); design: species or system HeLa; Intracellular C. trachomatis growth in HeLa cells, bulk GFP fluorescence relative to DMSO; details: bulk GFP, single well; 28.5 h, 10 µM; inhibitor
T1 construct: L2/434/Bu, GFP-expressing

SMILES	% of control remaining [%]
N#Cc1ccnc(N2CCC3(CCCN(CC4CCCCC4)C3=O)C2)c1 (stereo not shown) [CBK306561]	100.7
CCCC(=O)NC1CC(C)(C)Cc2nc(N3CCOCC3)ncc21 (stereo not shown) [CBK306883]	80.9936
CCOC(=O)N1CCN(Cn2nc(COc3ccccc3)n(C)c2=S)CC1 [CBK265148]	130.757
O=C(CSc1nnc(-c2ccncc2)n1-c1ccccc1)Nc1ccnc2ccccc12 [CBK267900]	108.189
O=C(Nc1ccc2n(c1=O)C[C@H]1C[C@@H]2CN(C(=O)Nc2ccc(F)cc2)C1)c1ccco1 [CBK289205]	146.318
COc1ccc(C2CC(c3nc4ccccc4[nH]3)=NN2C(=O)CCN2CCCCC2)cc1 (stereo not shown) [CBK267673]	102.371
Cn1ccc(C2CCCCCN2C(=O)c2c(Cl)cnn2C)n1 (stereo not shown) [CBK284914]	139.145
COc1ccc(Cl)cc1CN(C)C(=O)c1ccc[nH]c1=O [CBK305933]	130.193
OCCN1CCN(c2cc(Nc3ccc(Oc4ccccc4)cc3)nc3ccnn23)CC1 [CBK037185]	184.526
O=C(CCCN1C(=O)/C(=C\c2cccs2)SC1=S)Nc1cc(Cl)ccc1O [CBK263673]	100
Cc1nc(CN2CCC3(CC2)CN(C(=O)CO)c2ccccc23)cs1 [CBK131523]	165.535
O=C1COc2ccc(S(=O)(=O)NCc3ccccc3)cc2N1 [CBK270156]	152.74
COc1ccc(-c2cncc(N[C@@H](CO)C(C)C)n2)cc1 [CBK037941]	199.893
CCn1cc(C(=O)O)c(=O)c2cnc(N3CCN(C(=S)NC(=O)c4c(-c5ccccc5)noc4C)CC3)nc21 [CBK267491]	153.302
O=C(c1ccc2nc[nH]c2c1)N1CCC2(CCN(Cc3ccccc3)C2)C1 (stereo not shown) [CBK136862]	127.043
CCN(Cc1ccncc1)C(=O)Nc1cccnc1 [CBK145053]	104.666
COCCn1c(SC)nc2sc(-c3ccccc3)cc2c1=O [CBK295200]	144.33
O=S(=O)(c1ccc(F)c(F)c1F)n1ccc2c(N3CCNCC3)nccc21 [CBK059066C]	113.177
C=CCSc1nnc(-c2ccc(OCCC)cc2)[nH]1 [CBK267323]	84.1513
Cc1ccc(C23CC4CC(CC(C(=O)NC(C(=O)O)C(C)C)(C4)C2)C3)cc1 (stereo not shown) [CBK264924]	129.239
CCOC(=O)c1cnc2c(C)cc(C)cc2c1NCCN1CCOCC1 [CBK264757]	109.693
Cc1nnc(SCCCNC(=O)C2CC(=O)N(Cc3ccccn3)C2)s1 (stereo not shown) [CBK307529]	126.37
CCN(Cc1nc(-c2ccccc2)no1)C(=O)c1ccoc1C [CBK270229]	148.76
O=C(N[C@H]1CO[C@H]2[C@@H]1OC[C@@H]2n1cc(CC2CCCCC2)nn1)C1CC1 [CBK289509]	117.49
CSc1nn(C)c(=O)c2c3c(sc12)CCC3 [CBK019796]	128.663
Cc1cc(Cl)c(S(=O)(=O)NCc2cccs2)cc1OCC(N)=O [CBK266496]	143.072
O=C(CCCSc1nc2sc3c(c2c(=O)[nH]1)CCCC3)NCCO [CBK263336]	129.875

Some of the entries above, reformatted.
SMILES | % of control remaining [%]
COCCn1c(SC)nc2sc(-c3ccccc3)cc2c1=O [CBK295200] | 144.33
O=S(=O)(c1ccc(F)c(F)c1F)n1ccc2c(N3CCNCC3)nccc21 [CBK059066C] | 113.177
C=CCSc1nnc(-c2ccc(OCCC)cc2)[nH]1 [CBK267323] | 84.1513
Cc1ccc(C23CC4CC(CC(C(=O)NC(C(=O)O)C(C)C)(C4)C2)C3)cc1 (stereo not shown) [CBK264924] | 129.239
CCOC(=O)c1cnc2c(C)cc(C)cc2c1NCCN1CCOCC1 [CBK264757] | 109.693

(cont.)

SMILES	% of control remaining [%]
Cc1cc(C)c(C)c(S(=O)(=O)NCCCC(=O)O)c1C [CBK268898]	133.063
CC(=O)NCCn1cc2c(n1)[C@H]1CN(C(=O)CC(C)C)C[C@H]1CC2 [CBK284572]	120.464
c1ccc2c(c1)nc(N1CCOCC1)n2CCN1CCOCC1 [CBK269841]	111.056
O=C(O)C1(Oc2ccc3ccccc3c2)CCN(CC2CCOC2)CC1 (stereo not shown) [CBK306767]	132.118
CN1C(=O)c2ccccc2C(O)C2(C)CN(Cc3ccccc3)CC12 (stereo not shown) [CBK282849]	96.0116
N#Cc1ccccc1CSc1ncn[nH]1 [CBK027835]	100
C[N+]1(C)CCN(C(=O)CCC(=O)N2CC[N+](C)(C)CC2)CC1 [CBK278200I]	112.767
O=C(NC(=S)Nc1cccc(-c2nc3cc(Cl)ccc3o2)c1)c1ccccc1Br [CBK263973]	140.686
COc1ccc(CN2CCN(C)CC2)cc1OCc1ccccc1 [CBK261886]	108.643
Clc1cc(N[C@@H]2CCN(Cc3ccccc3)C2)n2nccc2n1 [CBK037069]	143.567
O=C(O)C1(NS(=O)(=O)c2ccc(Cl)cc2)CCCCC1 [CBK028566]	84.1802
CSCCN1CCC(Oc2nccnc2OCc2cc(C)on2)CC1 [CBK082966T]	118.84
Nc1nccc(-c2cc(OCC(F)(F)F)ccc2OCC(F)(F)F)n1 [CBK005948]	119.066
O=S(=O)(N[C@H]1CO[C@H]2[C@@H]1OC[C@@H]2n1cc(-c2ccccn2)nn1)c1cccs1 [CBK289508]	105.641
CCC(C)(C)C(=O)Nc1ccc(Br)c2ccccc12 [CBK091342]	71.5692
CCOC(=O)c1c(NC(=O)c2cccnc2)sc2c1CCCC2 [CBK304574]	99.6569
CCNC(=O)N[C@H]1CC[C@]2(C)CCC([C@H](C)C(=O)N3CCCC3)[C@H](O)[C@H]2[C@@H]1C (stereo partly shown) [CBK289456]	107.689
CN(C)CC(=O)Nc1ccc(Br)cc1C(=O)c1ccccc1Cl [CBK264663F]	126.809
CC1CN(C(=O)NC2CCCCC2)C(c2ccccc2)ON1C (stereo not shown) [CBK026650]	133.672
COc1ccc(NC(=O)CSc2cc(-n3cccn3)ncn2)cc1 [CBK287819]	104.681
O=C1OCc2ccc3c(c21)COCO3 [CBK022696]	107.661
CCCCn1c(SCC(=O)N(C)Cc2cnn(-c3ccccc3)c2)n[nH]c1=O [CBK296732]	129.263
Cc1cc2ccccc2n2c(=O)n(CC(=O)N3CCC(C)CC3)nc12 [CBK283881]	128.663
OCc1ccccc1-c1cncc(N2CCCC2CO)n1 (stereo not shown) [CBK065333]	179.607
Cc1nn(-c2nc3ccccc3s2)c(O)c1C1OC(=O)c2ccccc21 (stereo not shown) [CBK267220]	127.459
N#CC1(NC(=O)c2ccn(-c3cccc(F)c3)n2)CCSC1 (stereo not shown) [CBK304566]	110.414
COC(=O)N1CCC(C(=O)NC(c2ccccc2)c2nc(OC)cc(OC)n2)CC1 (stereo not shown) [CBK059651]	134.095

SMILES	% of control remaining [%]
Cc1cc(C)nc(SCC(=O)Nc2ccc(S(=O)(=O)NC3CCCCC3)cc2)n1 [CBK268299]	141.699
CC(CN(C)C(=O)c1cocn1)Oc1ccc(Cl)c(Cl)c1 (stereo not shown) [CBK304285]	112.664
COc1cncc(-c2cc(N3CCN(C(=O)c4ccco4)CC3)ncn2)c1 [CBK091121]	174.154
COCCN1C(=O)CC2(C1=O)C(=O)N(CC(=O)c1ccccc1)c1ccccc12 (stereo not shown) [CBK075875]	134.888
O=C(Nc1ccc(Cl)cc1)Nc1ccc(OCC(O)CN2CCCCC2)cc1 (stereo not shown) [CBK086101]	75.8501
O=C1c2ccccc2C(=O)N1Cc1nc2ccccc2c(=O)n1CCCN1CCOCC1 [CBK268463]	132.518
COc1ccc2[nH]c3c(c2c1)CCN1C(c2ccco2)N2CCC31CC2 (stereo not shown) [CBK284432]	112.915
Cn1nccc1CN1CCNC(=O)C1c1ccccc1C(F)(F)F (stereo not shown) [CBK306422]	118.552
CC(NC(=O)C1CC(=O)N(c2cccc(F)c2)C1)C1CC2CCC1C2 (stereo not shown) [CBK281664]	130.93
Cc1nc([N+](=O)[O-])c(SCC(O)CN2CCCCC2)[nH]1 (stereo not shown) [CBK261727]	116.059
Cc1cc(C)nc(SCCC(=O)O)n1 [CBK260975]	118.271
CS(=O)(=O)N(CC(=O)Nc1ccc(S(=O)(=O)N2CCCCCC2)cc1)c1ccccc1F [CBK266829]	141.558
Cc1ccccc1Cn1c(=O)sc2ccccc21 [CBK025408]	124.495
O=C(/C=C/c1ccc2c(c1)OCO2)N1CCN(c2ncccn2)CC1 [CBK144501]	123.432
CCCc1n[nH]c(=S)n1CC(=O)Nc1cc(NC(=O)C2CC2)ccc1C [CBK297740]	131.913
O=C(c1ccco1)N1CCN(c2cc(-c3ccsc3)ncn2)CC1 [CBK037690]	225.051
O=C(NCCn1nc(-c2cccs2)ccc1=O)C1CCCC1 [CBK283840]	96.1697
O=C(Nc1ccc(N2CCNCC2)nc1)c1cnccn1 [CBK029436T]	124.356
Cc1ccc(C2N(Cc3ccccc3)CCN2Cc2ccccc2)o1 [CBK260883]	108.645
CCC1CCCCN1C(=O)c1cccs1 (stereo not shown) [CBK074214]	117.365
O=C(NC[C@H]1C[C@@H]2CC[N@]1C[C@@H]2CN1CCN(c2ncccn2)CC1)c1ccco1 [CBK289115]	140.92
CC1OCN(c2ccc(C(C)(C)C)cc2)Cn2c1nc1ccccc12 (stereo not shown) [CBK018706]	125.534
O=C(O)CCn1c(C2CCCCC2)nc2ccccc21 [CBK111480]	87.9607
CCC(C)(C)Nc1cccnc1N(C)C1CCN(C(=O)c2cc3cc(N)ccc3[nH]2)CC1 [CBK016674]	132.394
CC(C)N1CCC(=NNC(=O)COc2ccc(Cl)cc2Cl)CC1 [CBK262614]	100
